# Reference: PubChem BioAssay AID248 (DTP/NCI, 2004)
# The list does not hold the whole screen: it gathers tests that were run many times, whatever their T/C, doses with no T/C, and many T/C values between a quarter and a half above the control. Other doses and runs of a compound stand elsewhere. T/C: endpoint of the treated group in % of that of the vehicle group. Some entries give survivors of the animals treated and no T/C: the source holds a T/C of zero for them, seemingly a mark for toxic or unscored doses. Some survivor counts are full or nearly so, which does not show that the dose was tolerated: the source hardly ever lists a survival T/C far under the control, and the zero likely stands for such cases as well. Counts of survivors are from the toxicity check (mostly the fifth day) where no day follows; animals may have died later. Schedule codes are those of the source, read here as Q, the interval in days (D) or hours (H), X, the number of doses. Some entries were tested several times; the values are given in rising order. Some schedule codes hold Z or #, which are not explained here. For survival time, this PubChem deposit counts one and a half times the control or more as active, and values a quarter to a half above the control carry no call in these data; other NCI protocols may use other cut-offs. Some T/C values are followed by the survivors on the day toxicity was checked, most often the fifth; without a count, all were alive then.
# System: L1210 leukemia ip in BDF1 mice, survival T/C
# Test: NCI In Vivo Anticancer Drug Screen. Data for tumor model L1210 Leukemia (intraperitoneal) in B6D2F1 (BDF1) mice
# Conditions: T/C endpoint: mean survival time, higher T/C = longer survival
# [1] = dose: 200.0 mg/kg/injection, schedule: Q01DX009 (ip), vehicle: acetone
# [2] = dose: 200.0 mg/kg/injection, schedule: Q01DX005 (ip), vehicle: saline
# [3] = dose: 400.0 mg/kg/injection, schedule: Q04DX003 (ip), vehicle: saline
# [4] = dose: 200.0 mg/kg/injection, schedule: Q04DX003 (ip), vehicle: Klucel (hydroxypropylcellulose) (HPC)
# [5] = dose: 400.0 mg/kg/injection, schedule: Q04DX003 (ip), vehicle: Klucel (hydroxypropylcellulose) (HPC)
# [6] = dose: 200.0 mg/kg/injection, schedule: Q01DX001 (ip), vehicle: saline
# [7] = dose: 400.0 mg/kg/injection, schedule: Q01DX001 (ip), vehicle: saline
# [8] = dose: 400.0 mg/kg/injection, schedule: Q04DX002 (ip), vehicle: saline with Tween-80
# [9] = dose: 400.0 mg/kg/injection, schedule: Q01DX009 (ip), vehicle: Klucel (hydroxypropylcellulose) (HPC)
# [10] = dose: 200.0 mg/kg/injection, schedule: Q01DX009 (ip), vehicle: saline with Tween-80
# [11] = dose: 400.0 mg/kg/injection, schedule: Q04DX003 (ip), vehicle: saline with Tween-80
# [12] = dose: 100.0 mg/kg/injection, schedule: Q04DX003 (ip), vehicle: saline with Tween-80
# [13] = dose: 200.0 mg/kg/injection, schedule: Q04DX003 (ip), vehicle: saline with Tween-80
smiles,measurement,setting,value
CCn1cnc2c(=S)nc[nH]c21,T/C,"dose: 60.0 mg/kg/injection, schedule: Q01DX009 (ip), vehicle: other",131 % of control
same,T/C,"dose: 60.0 mg/kg/injection, schedule: Q01DX009 (oral), vehicle: other",134 % of control
same,T/C,"dose: 60.0 mg/kg/injection, schedule: Q01DX009 (sc), vehicle: other",149 % of control
same,T/C,"dose: 74.0 mg/kg/injection, schedule: Q01DX Z (oral), vehicle: carboxymethylcellulose (CMC)",134 % of control [5 of 6 alive]
same,T/C,"dose: 120.0 mg/kg/injection, schedule: Q## X016 (ip), vehicle: other",126 % of control
same,T/C,"dose: 120.0 mg/kg/injection, schedule: Q## X024 (ip), vehicle: other",141 % of control
same,T/C,"dose: 125.0 mg/kg/injection, schedule: Q01DX009 (ip), vehicle: saline",125 and 141 % of control
same,T/C,"dose: 125.0 mg/kg/injection, schedule: Q01DX010 (ip), vehicle: saline",133 % of control
same,T/C,"dose: 150.0 mg/kg/injection, schedule: Q## X003 (ip), vehicle: other",126 % of control
same,T/C,"dose: 240.0 mg/kg/injection, schedule: Q## X008 (ip), vehicle: other",138 % of control
same,survivor count,"dose: 250.0 mg/kg/injection, schedule: Q01DX010 (ip), vehicle: saline",1 of 6 and 2 of 6
same,T/C,"dose: 300.0 mg/kg/injection, schedule: Q01DX001 (ip), vehicle: other",128 % of control
same,T/C,"dose: 300.0 mg/kg/injection, schedule: Q01DX001 (sc), vehicle: other",131 % of control
same,T/C,"dose: 300.0 mg/kg/injection, schedule: Q## X002 (ip), vehicle: other",140 % of control
same,T/C,"dose: 600.0 mg/kg/injection, schedule: Q01DX001 (ip), vehicle: other",147 % of control
same,T/C,"dose: 600.0 mg/kg/injection, schedule: Q## X002 (ip), vehicle: other",138 % of control
same,T/C,"dose: 1200.0 mg/kg/injection, schedule: Q01DX001 (oral), vehicle: other",142 % of control
COc1nc2ccccc2nc1N1CC1,survivor count,[1],2 of 6
CC1CCN(C(=O)CCCCl)CC1,survivor count,"dose: 400.0 mg/kg/injection, schedule: Q04DX002 (ip), vehicle: saline",3 of 3
Cn1cnc(/C(N)=N\O)c1N,survivor count,[2],1 of 4
same,survivor count,"dose: 400.0 mg/kg/injection, schedule: Q01DX005 (ip), vehicle: saline",1 of 4
CCC(=O)OC(CCN(C)C)(Cc1ccccc1)c1ccccc1 (configuration not stated),survivor count,"dose: 200.0 mg/kg/injection, schedule: Q04DX003 (ip), vehicle: saline",1 of 6
same,survivor count,[3],0 of 6
CC(=O)OC1c2sccc2Cc2ccsc21,survivor count,"dose: 400.0 mg/kg/injection, schedule: Q01DX001 (ip), vehicle: saline with Tween-80",3 of 3
CC1C(C)[N+]1=P(c1ccccc1)(c1ccccc1)c1ccccc1 (configuration not stated),survivor count,"dose: 15.0 mg/kg/injection, schedule: Q01DX001 (ip), vehicle: carboxymethylcellulose (CMC)",5 of 6
same,survivor count,"dose: 30.0 mg/kg/injection, schedule: Q01DX001 (ip), vehicle: carboxymethylcellulose (CMC)",2 of 6
same,survivor count,"dose: 60.0 mg/kg/injection, schedule: Q01DX001 (ip), vehicle: carboxymethylcellulose (CMC)",2 of 6
same,survivor count,"dose: 75.0 mg/kg/injection, schedule: Q01DX001 (ip), vehicle: carboxymethylcellulose (CMC)",1 of 6
same,survivor count,"dose: 150.0 mg/kg/injection, schedule: Q01DX001 (ip), vehicle: carboxymethylcellulose (CMC)",0 of 6
same,survivor count,"dose: 300.0 mg/kg/injection, schedule: Q01DX001 (ip), vehicle: carboxymethylcellulose (CMC)",0 of 6
O=C(O/N=C1\C2CCC(C2)C1Cl)c1ccc([N+](=O)[O-])cc1 (configuration not stated),survivor count,"dose: 100.0 mg/kg/injection, schedule: Q01DX009 (ip), vehicle: saline with Tween-80",1 of 6
same,survivor count,[4],2 of 6
same,survivor count,[5],2 of 6
CC(C)(C)NN,survivor count,[6],0 of 4
same,survivor count,[7],0 of 4
Clc1ccc(/C=C/c2nc(Cl)c(-c3ccc(Cl)cc3)c(Cl)n2)cc1,survivor count,"dose: 75.0 mg/kg/injection, schedule: Q04DX003 (ip), vehicle: Klucel (hydroxypropylcellulose) (HPC)",6 of 6
NC1(C(=O)NCC(=O)O)CCCC1,T/C,[3],125 % of control
O=C1NCC2(O1)c1ccccc1-c1ccccc12,T/C,[8],130 % of control
CC1CCCC[N-]1.CC1CCCC[N-]1.[Cl][Pt+2][Cl] (configuration not stated),survivor count,[9],4 of 6
Cc1cc(C)c2ccc([S+](C)C)c-2c(C)c1,survivor count,"dose: 100.0 mg/kg/injection, schedule: Q01DX001 (ip), vehicle: carboxymethylcellulose (CMC)",0 of 4
same,survivor count,"dose: 200.0 mg/kg/injection, schedule: Q01DX001 (ip), vehicle: carboxymethylcellulose (CMC)",0 of 4
same,survivor count,"dose: 400.0 mg/kg/injection, schedule: Q01DX001 (ip), vehicle: carboxymethylcellulose (CMC)",0 of 4
OC(C1CCCCN1)C12CC3CC(CC(C3)C1)C2 (configuration not stated),survivor count,[10],0 of 6
same,survivor count,[11],0 of 6
COc1cc(/C=N/N=C(N)N)ccc1O,survivor count,"dose: 480.0 mg/kg/injection, schedule: Q01DX Z (ip), vehicle: saline",0 of 6
CCOc1ccc([N+](=O)[O-])cc1CN(CC)CC,survivor count,"dose: 40.0 mg/kg/injection, schedule: Q04DX003 (ip), vehicle: saline",3 of 6
same,survivor count,"dose: 75.0 mg/kg/injection, schedule: Q01DX001 (ip), vehicle: saline",0 of 6
same,survivor count,"dose: 150.0 mg/kg/injection, schedule: Q01DX001 (ip), vehicle: saline",0 of 6
same,survivor count,"dose: 300.0 mg/kg/injection, schedule: Q01DX001 (ip), vehicle: saline",0 of 6
CC1(CO)CCCC2(C)c3cc(O)ccc3CCC12 (configuration not stated),survivor count,"dose: 50.0 mg/kg/injection, schedule: Q01DX009 (ip), vehicle: acetone",6 of 6
same,survivor count,[1],6 of 6
CCOC(=O)c1ccc(NC(=O)Oc2ccc(-c3ccccc3)cc2)cc1,survivor count,[12],6 of 6
same,survivor count,[13],6 of 6
same,survivor count,[8],3 of 3
same,survivor count,[11],6 of 6
Nc1nc([Se])c2ncn(C3OC(CO)C(O)C3O)c2n1 (configuration not stated),T/C,"dose: 5.0 mg/kg/injection, schedule: Q01DX009 (ip), vehicle: saline",143 % of control
same,T/C,"dose: 40.0 mg/kg/injection, schedule: Q01DX009 (ip), vehicle: saline",138 % of control
same,survivor count,"dose: 100.0 mg/kg/injection, schedule: Q01DX005 (ip), vehicle: saline",2 of 6
same,survivor count,[2],0 of 6
CC(C)(c1ccccc1)[N+](C)(C)C,survivor count,"dose: 32.0 mg/kg/injection, schedule: Q01DX Z (ip), vehicle: saline",0 of 6
same,survivor count,"dose: 50.0 mg/kg/injection, schedule: Q01DX001 (ip), vehicle: saline",0 of 4
same,survivor count,"dose: 100.0 mg/kg/injection, schedule: Q01DX001 (ip), vehicle: saline",0 of 4
same,survivor count,[12],0 of 6
same,survivor count,[6],0 of 4
same,survivor count,[13],0 of 6
same,survivor count,[7],0 of 4
same,survivor count,[11],0 of 6
CSCCC(C#N)(CCN(C)C)c1ccccc1 (configuration not stated),survivor count,[10],1 of 6
same,survivor count,"dose: 400.0 mg/kg/injection, schedule: Q01DX009 (ip), vehicle: saline with Tween-80",0 of 6
same,survivor count,[5],0 of 6
Cc1cc(NC(=O)Nc2cc(F)ccc2F)no1,T/C,"dose: 100.0 mg/kg/injection, schedule: Q01DX009 (ip), vehicle: Klucel (hydroxypropylcellulose) (HPC)",145 % of control
CS(=O)(=O)c1ccc(F)c([N+](=O)[O-])c1,survivor count,"dose: 100.0 mg/kg/injection, schedule: Q04DX003 (ip), vehicle: Klucel (hydroxypropylcellulose) (HPC)",2 of 3
same,survivor count,[4],0 of 3
same,survivor count,[5],0 of 3
CC(C)NNC(=O)c1ccccc1N,survivor count,[9],3 of 6
c1ccc(C2=C(c3ccccc3)NC(c3ccccc3)N2)cc1,survivor count,[4],1 of 6
same,survivor count,[5],0 of 6
